Measurements from patent US20120149028A1 (LUDWIG MAXIMILIANS UNIVERSITAT M NCHEN, published 2012).

Target: RFP-PCNA
Assay: co-expression in HeLa cells, epifluorescence microscopy

B1: Chromobody PCNA3p16-GFP (VHH)
VHH: QVQLVESGGGLVQPGGSLRLSCAASGFTFSSYAMSWVRQAPGKGLEWVSDISPSGAVKAYSDSVKGRFTISRDNAKNRLYLQMNSLTPEDTGEYFCTKVQSPRTRIPAPSSQGTQVTVSS
  binding: binds

Results are given in words; binding and its absence hold for the method and conditions named. Binding calls can cover weak binding; strength is not graded here. Where a sequence is shown, tags or fusion partners need not be part of it.
